In US9931401B2, “Combination comprising anti-fibroblast growth factor receptor 2 (FGFR2) antibody and a tyrosine kinase inhibitor” (Daiichi Sankyo Company, Limited, priority 2013, dated 2018):

Tested on: human FGFR2 IIIb
Test: Epitope identification by flow cytometry with Ig-like domain-deficient FGFR2 IIIb mutants
Format: binding
Conditions: IgD1-, IgD2-, IgD3-deletion mutants of FGFR2 IIIb on HEK293T

| Molecule | epitope (Ig-like domain bound) |
| --- | --- |
| FR2-10: anti-human FGFR2 rat monoclonal antibody obtained by the method described in Example 1; VH SEQ ID NO: 12, VL SEQ ID NO: 21 (antibody, listed as Rattus norvegicus, V domains shown) VH: EVQLVESGGGLVQPGRSLKLSCVASGFRFNDFWMTWIRQAPGKGLEWVASITYTGDNTYYAGSVKGRITISRDNAKSTLYLQMNSLRSEDTATYYCTRDDYGGYSPYYMDAWGQGTSVTVSS VL: DIQMTQSPSSLSAFLGDRVTITCRASQDIGNYLRWFQQKPGKSPRLMIYGATNLANGVPSRFSGSRSGSDYSLTINNLESEDMAIYYCLKHNEYPFTFGSGTKLEIKRA | bind to the Ig-like domain 3 of human FGFR2 IIIb |
| FR2-13: anti-human FGFR2 rat monoclonal antibody obtained by the method described in Example 1; VH SEQ ID NO: 14, VL SEQ ID NO: 24 (antibody, listed as Rattus norvegicus, V domains shown) VH: QVKLLQSGAELVKPGASVKLSCKTSGFTFSTSYMSWLKQVPGPSIEWIGWIYAGDGGTKYNQKFKGKATLTVDKSSSTAYMDLSSLTSEDAAVYFCATDGYGDWFAYWGQGTLVTVSS VL: DIQMTQSPASLSASLGETVTIECRASEDIYSNLAWYQQKPGNSPQLLIYDANILADGVPSRFSGSGSGTQYSLKINSLQSEDVASYFCQQYNNYPPFTFGVGTKLELKRA | bind to the common Ig-like domain 2 of human FGFR2 IIIb and FGFR2 IIIc |
| FR2-14: anti-human FGFR2 rat monoclonal antibody obtained by the method described in Example 1; VH SEQ ID NO: 16, VL SEQ ID NO: 26 (antibody, listed as Rattus norvegicus, V domains shown) VH: QVKLLQSGAELVKPGASVKLSCKTSGFTFSTSYMSWLKQVPGPSTEWIGWIYAGDGGTKYNQKFKGKATLTVDKFSSTAYMDLSSLTSEDAAVYFCATDGYGDWFTYWGQGTLVTVSS VL: DIQMTQSPASLSASLGETVTIECRASEDIYSNLAWYQQKPGNSPQLLIYDANILADGVPSRFSGSGSGTQYSLKINSLQSEDVASYFCQQYNNYPPFTFGAGTKLELKRA | bind to the common Ig-like domain 2 of human FGFR2 IIIb and FGFR2 IIIc |
